Reference: the supplement of paper PMC10849652
This is one part of the list.

Protein sequences, listed by entry. Tags and fused reporters are not part of them. Lines headed by an entry give the natural chain unless they say otherwise; changes in a name come on top.
UniProt Q16587: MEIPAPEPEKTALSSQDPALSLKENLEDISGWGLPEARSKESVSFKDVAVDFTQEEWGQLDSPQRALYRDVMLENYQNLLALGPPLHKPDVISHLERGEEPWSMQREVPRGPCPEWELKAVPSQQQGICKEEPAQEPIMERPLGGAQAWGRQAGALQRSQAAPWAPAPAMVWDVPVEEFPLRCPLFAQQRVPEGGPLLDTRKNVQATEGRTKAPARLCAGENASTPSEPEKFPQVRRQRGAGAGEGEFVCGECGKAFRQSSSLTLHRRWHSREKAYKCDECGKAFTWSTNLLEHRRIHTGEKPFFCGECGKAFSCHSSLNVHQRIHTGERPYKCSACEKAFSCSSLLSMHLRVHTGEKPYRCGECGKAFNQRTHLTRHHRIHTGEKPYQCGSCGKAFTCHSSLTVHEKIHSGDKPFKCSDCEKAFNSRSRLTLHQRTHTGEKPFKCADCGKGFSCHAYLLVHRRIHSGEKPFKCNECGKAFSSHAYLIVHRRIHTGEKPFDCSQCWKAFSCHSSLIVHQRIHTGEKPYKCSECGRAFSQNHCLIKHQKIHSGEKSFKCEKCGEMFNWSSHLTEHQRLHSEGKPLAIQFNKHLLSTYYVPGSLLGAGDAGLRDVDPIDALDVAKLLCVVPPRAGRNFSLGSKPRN
UniProt Q8NDX6: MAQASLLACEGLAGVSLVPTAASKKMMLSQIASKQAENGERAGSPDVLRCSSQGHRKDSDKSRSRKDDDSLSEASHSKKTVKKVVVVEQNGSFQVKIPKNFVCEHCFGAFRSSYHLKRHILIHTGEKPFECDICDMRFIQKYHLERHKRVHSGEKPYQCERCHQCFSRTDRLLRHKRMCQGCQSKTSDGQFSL

Target: ZNF74 isoform 5 (UniProt Q16587)
Experiment: log2 fold change, soluble protein after heating vs DMSO (PISA); higher = thermal stabilisation; K562 cells, 10 uM, 30 min; active = over 0.2 and 3.5 SD of the protein, either way, in both replicates (recomputed)
Outline: (§1)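 For each measurement, 10 μM compound was applied for 30 min to K562 cells at 2×10^6 cells/mL. Aliquots were heated for 3 min across 48°C-58°C, pooled, and extracted in PBS with 0.5% NP-40 at 4°C; the supernatant after 21,000xg for 90 min was soluble protein. This was quantified by TMTpro 16plex LC-MS/MS with channel sums equalised, and thermal stability was reported relative to control samples from duplicates, on a log2 fold-change scale.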

log2 fold change, inactive:
Cc1cccc(-c2[nH]c(C(C)(C)C)nc2-c2ccc3nccnc3c2)n1 -0.019
COc1cc2ncnc(Nc3ccc(F)c(Cl)c3)c2cc1OCCCN1CCOCC1 [gefitinib] 0.061
Cc1cc(Nc2cc(CN3CCOCC3)c3nc(C)c(Cc4ccc(Cl)cc4F)n3n2)n[nH]1 [gandotinib] -0.063
O=C1NC(=O)/C(=C\c2ccc3nccnc3c2)S1 -0.05
CCN(CCCOc1ccc2c(Nc3cc(CC(=O)Nc4cccc(F)c4)[nH]n3)ncnc2c1)CCOP(=O)(O)O [barasertib] 0.055
Cc1ncc(-c2ccnc(Nc3ccc(S(C)(=O)=O)cc3)n2)n1C(C)C -0.078
Cc1cccc(CC(=O)N2CCc3c2ccc(-c2cn(C)c4ncnc(N)c24)c3F)n1 0.033
Cc1ccc(NC(=O)c2ccc(CN3CC[C@H](N(C)C)C3)c(C(F)(F)F)c2)cc1Nc1nccc(-c2cncnc2)n1 [bafetinib] 0.004
CCn1cc(-c2ccnc3[nH]c(-c4cccc(CN(C)C)c4)cc23)c(-c2ccc(NC(=O)N(C)C)cc2)n1 0.077
CC(C)N(C[C@H]1O[C@@H](n2cnc3c(N)ncnc32)[C@H](O)[C@@H]1O)[C@H]1C[C@@H](CCc2nc3cc(C(C)(C)C)ccc3[nH]2)C1 [pinometostat] 0.02
CN1CCC(CNc2ccc3ncc(-c4cccc(OC(F)(F)F)c4)n3n2)CC1 0.117
CC[C@H](C)n1cc(C)c2c(C(=O)NCc3c(C)cc(C)[nH]c3=O)cc(-c3ccc(N4CCNCC4)nc3)cc21 0.05
COc1ccc(Cn2ccc3ccc(C(=O)NO)cc32)cc1 0.024
CS(=O)(=O)N1CCN(Cc2cc3nc(-c4cccc5[nH]ncc45)nc(N4CCOCC4)c3s2)CC1 [pictilisib] -0.137
O=C(CCCCCCC(=O)Nc1ccccc1)NO [vorinostat] -0.036
C[C@@H](Oc1cc(-c2cnn(C3CCNCC3)c2)cnc1N)c1c(Cl)ccc(F)c1Cl [crizotinib] 0.155
Cc1ccc(-n2nc(C(C)(C)C)cc2NC(=O)Nc2ccc(OCCN3CCOCC3)c3ccccc23)cc1 [doramapimod] 0.099
Cc1cn(-c2cc(NC(=O)c3ccc(C)c(Nc4nccc(-c5cccnc5)n4)c3)cc(C(F)(F)F)c2)cn1 [nilotinib] -0.095
C=CC(=O)N1CCC[C@@H](n2nc(-c3ccc(Oc4ccccc4)cc3)c3c(N)ncnc32)C1 [ibrutinib] 0.026
O=C(Nc1nc2ccccc2n1CCN1CCOCC1)c1cccc([N+](=O)[O-])c1 [IRAK-1-4 Inhibitor I] -0.034
Cc1nc(Nc2n[nH]c3c2CN(C(=O)N[C@H](CN(C)C)c2ccccc2)C3(C)C)c2sccc2n1 0.029

Target: ZNF740 (UniProt Q8NDX6)
Experiment: as above
Outline: as §1

log2 fold change, inactive:
CCCc1cc(C)[nH]c(=O)c1CNC(=O)c1cc(-c2ccnc(N3CCN(C)CC3)c2)cc2c1cnn2C(C)C 0.054
COc1cc2ncnc(Nc3ccc(F)c(Cl)c3)c2cc1OCCCN1CCOCC1 [gefitinib] -0.016
NC1(c2ccc(-c3nc4ccn5c(=O)[nH]nc5c4cc3-c3ccccc3)cc2)CCC1 0.167
O=C1NC(=O)/C(=C\c2ccc3nccnc3c2)S1 -0.077
CCN(CCCOc1ccc2c(Nc3cc(CC(=O)Nc4cccc(F)c4)[nH]n3)ncnc2c1)CCOP(=O)(O)O [barasertib] -0.026
Cc1ncc(-c2ccnc(Nc3ccc(S(C)(=O)=O)cc3)n2)n1C(C)C -0.053
COc1cccc2cc(-c3nc([C@H]4CC[C@H](C(=O)O)CC4)n4ncnc(N)c34)[nH]c12 0.15
Cc1ccc(NC(=O)c2ccc(CN3CC[C@H](N(C)C)C3)c(C(F)(F)F)c2)cc1Nc1nccc(-c2cncnc2)n1 [bafetinib] -0.069
C[C@@H](N)c1ccc(C(=O)Nc2ccnc3[nH]ccc23)cc1 0.326
CC[C@H](C)n1cc(C)c2c(C(=O)NCc3c(C)cc(C)[nH]c3=O)cc(-c3ccc(N4CCNCC4)nc3)cc21 -0.077
COc1cc(Nc2ncc3c(n2)-c2ccc(Cl)cc2C(c2c(F)cccc2OC)=NC3)ccc1C(=O)O [alisertib] -0.171
Cn1cc(-c2ccc3c(c2)CCN3C(=O)Cc2cccc(C(F)(F)F)c2)c2c(N)ncnc21 -0.094
Cc1cn(-c2cc(NC(=O)c3ccc(C)c(Nc4nccc(-c5cccnc5)n4)c3)cc(C(F)(F)F)c2)cn1 [nilotinib] -0.164
O=C(O)c1ccc2c(c1)nc(Nc1cccc(Cl)c1)c1ccncc12 [silmitasertib] -0.04
C=CC(=O)N1CCC[C@@H](n2nc(-c3ccc(Oc4ccccc4)cc3)c3c(N)ncnc32)C1 [ibrutinib] -0.015
Cc1nc(Nc2n[nH]c3c2CN(C(=O)N[C@H](CN(C)C)c2ccccc2)C3(C)C)c2sccc2n1 -0.065
CO[C@H]1C[C@@H]2CC[C@@H](C)[C@@](O)(O2)C(=O)C(=O)N2CCCC[C@H]2C(=O)O[C@H]([C@H](C)C[C@@H]2CC[C@H](n3cnnn3)[C@H](OC)C2)CC(=O)[C@H](C)/C=C(\C)[C@@H](O)[C@@H](OC)C(=O)[C@H](C)C[C@H](C)/C=C/C=C/C=C/1C [zotarolimus] -0.103
FC(F)(F)c1ccc(/C=C/c2nc(COc3ccc(CCCCn4ccnn4)cc3)co2)cc1 [mubritinib] 0.001
